# The list shows a part of the results. For some of these results: The source does not settle which construct or isoform was used.
# Sequences of proteins named here, by UniProt entry; tags and fusion partners are left off. A change or cut given only in a name is not applied to a line headed by its entry.
# UniProt Q6P597: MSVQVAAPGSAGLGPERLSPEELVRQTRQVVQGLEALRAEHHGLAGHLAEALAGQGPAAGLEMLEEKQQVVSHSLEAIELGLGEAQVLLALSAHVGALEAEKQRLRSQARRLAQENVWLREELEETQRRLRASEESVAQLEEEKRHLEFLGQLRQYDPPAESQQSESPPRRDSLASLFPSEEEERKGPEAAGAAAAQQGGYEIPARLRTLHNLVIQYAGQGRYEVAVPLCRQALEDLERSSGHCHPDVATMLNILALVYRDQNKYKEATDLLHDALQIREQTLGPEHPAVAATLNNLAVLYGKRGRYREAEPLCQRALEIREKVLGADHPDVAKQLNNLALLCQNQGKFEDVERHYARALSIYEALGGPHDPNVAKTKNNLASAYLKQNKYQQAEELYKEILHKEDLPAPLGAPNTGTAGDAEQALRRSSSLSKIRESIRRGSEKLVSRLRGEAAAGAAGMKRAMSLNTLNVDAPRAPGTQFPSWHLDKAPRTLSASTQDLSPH
# UniProt Q9NSK0: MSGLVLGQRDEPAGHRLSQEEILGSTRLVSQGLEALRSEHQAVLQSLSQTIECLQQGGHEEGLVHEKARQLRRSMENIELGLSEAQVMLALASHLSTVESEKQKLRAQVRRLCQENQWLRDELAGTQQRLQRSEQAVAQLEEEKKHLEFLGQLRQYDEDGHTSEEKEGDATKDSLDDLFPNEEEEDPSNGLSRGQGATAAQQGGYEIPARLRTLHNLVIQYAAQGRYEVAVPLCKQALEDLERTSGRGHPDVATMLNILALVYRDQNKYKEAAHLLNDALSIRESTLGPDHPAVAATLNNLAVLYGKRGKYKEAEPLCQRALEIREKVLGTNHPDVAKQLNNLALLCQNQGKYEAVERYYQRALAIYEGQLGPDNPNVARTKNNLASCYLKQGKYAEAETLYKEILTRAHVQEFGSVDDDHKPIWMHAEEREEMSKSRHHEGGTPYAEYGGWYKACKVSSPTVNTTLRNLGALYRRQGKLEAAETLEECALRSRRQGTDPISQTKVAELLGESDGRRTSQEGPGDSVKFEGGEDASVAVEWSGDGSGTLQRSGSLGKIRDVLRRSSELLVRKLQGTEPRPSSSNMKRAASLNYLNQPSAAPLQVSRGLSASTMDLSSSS
# UniProt Q8TBB5: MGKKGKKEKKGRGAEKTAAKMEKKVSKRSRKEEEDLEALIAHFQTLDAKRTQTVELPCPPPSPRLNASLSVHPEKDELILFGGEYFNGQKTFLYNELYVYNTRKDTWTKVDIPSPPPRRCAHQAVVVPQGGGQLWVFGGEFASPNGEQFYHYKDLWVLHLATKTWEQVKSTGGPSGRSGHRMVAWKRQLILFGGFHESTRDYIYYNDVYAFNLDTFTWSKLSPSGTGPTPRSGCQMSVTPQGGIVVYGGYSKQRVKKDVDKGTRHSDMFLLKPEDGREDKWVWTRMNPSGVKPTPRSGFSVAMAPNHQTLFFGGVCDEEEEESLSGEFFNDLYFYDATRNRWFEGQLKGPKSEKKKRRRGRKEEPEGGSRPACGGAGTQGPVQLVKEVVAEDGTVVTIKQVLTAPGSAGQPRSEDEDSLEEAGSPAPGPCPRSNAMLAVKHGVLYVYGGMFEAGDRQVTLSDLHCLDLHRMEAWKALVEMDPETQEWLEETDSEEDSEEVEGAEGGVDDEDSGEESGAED
# UniProt Q13601: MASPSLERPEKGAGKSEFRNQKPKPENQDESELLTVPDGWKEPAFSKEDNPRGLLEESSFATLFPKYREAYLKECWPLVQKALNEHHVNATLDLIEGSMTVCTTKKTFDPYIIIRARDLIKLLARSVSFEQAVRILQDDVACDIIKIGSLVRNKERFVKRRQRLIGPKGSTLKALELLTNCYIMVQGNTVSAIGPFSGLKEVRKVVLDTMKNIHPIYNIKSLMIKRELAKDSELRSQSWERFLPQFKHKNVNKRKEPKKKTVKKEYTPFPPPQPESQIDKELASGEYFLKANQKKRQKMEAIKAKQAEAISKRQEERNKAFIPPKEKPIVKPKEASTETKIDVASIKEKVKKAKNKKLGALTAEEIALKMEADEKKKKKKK
# What was measured:
# Assay in all cases: protein microarray (ProtoArray v5.0), streptavidin-Alexa Fluor 647
# Conditions in all cases: 3'-biotin; 20 mM Tris (pH 7.5), 5 mM MgCl2, 100 mM KCl, 0.1% Tween-20, A/T-rich and random oligonucleotide blockers; temperature not stated; high values mean tight binding
# KLC3 = KLC3 (UniProt Q6P597)
# KLC4 = KLC4 (UniProt Q9NSK0)
# KLHDC4 = KLHDC4 (UniProt Q8TBB5)
# KLHL20 (human) = test system: KLHL20 (human)
# KLHL32 (human) = test system: KLHL32 (human)
# KLK1 (human) = test system: KLK1 (human)
# KLK7 (human) = test system: KLK7 (human)
# KLK9 (human) = test system: KLK9 (human)
# KRAS (human) = test system: KRAS (human)
# KRR1 = KRR1 (UniProt Q13601)
sequence,measurement,setting,value
GGTGACAGGGGTATGGGGAGGGG [G4-2 biotinylated (Ct1)],binding signal,KLC3,-0.376 z-score
same,binding signal,KLC4,-0.396 z-score
same,binding signal,KLHDC4,3.17 z-score
same,binding signal,KLHL20 (human),-0.386 z-score
same,binding signal,KLHL32 (human),-0.403 z-score
same,binding signal,KLK1 (human),-0.374 z-score
same,binding signal,KLK7 (human),-0.366 z-score
same,binding signal,KLK9 (human),-0.385 z-score
same,binding signal,KRAS (human),-0.383 z-score
same,binding signal,KRR1,6.5 z-score

# Source: paper PMC5996148
